Source: publication PMC10861826
Results are given in words; binding and its absence hold for the method and conditions named. Binding seen in cells or lysates may run through a third protein. Some entries that bind do so weakly or less than the wild type.

Amino acid sequences for entries named in this document (tags omitted).
UniProt O15392: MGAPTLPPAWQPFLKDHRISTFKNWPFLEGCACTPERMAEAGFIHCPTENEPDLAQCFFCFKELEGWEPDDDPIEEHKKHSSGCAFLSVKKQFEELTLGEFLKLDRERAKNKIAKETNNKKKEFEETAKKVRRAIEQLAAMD

Molecular target: survivin (human (endogenous in HCC827)) (UniProt O15392)
Assay: co-IP; survivin antibody (2 ug) on protein A/G-agarose beads, lysate incubated 2 h at 4°C; HCC827 cells treated with Dioscin or DMSO for 24 h, then MG132 (20 µM) for 8 h; IP lysis buffer; co-precipitated proteins detected by immunoblot

B1: E3 ubiquitin ligase Fbxl7 (protein, UniProt Q9UJT9 1-491)
chain: MGANNGKQYGSEGKGSSSISSDVSSSTDHTPTKAQKNVATSEDSDLSMRTLSTPSPALICPPNLPGFQNGRGSSTSSSSITGETVAMVHSPPPTRLTHPLIRLASRPQKEQASIDRLPDHSMVQIFSFLPTNQLCRCARVCRRWYNLAWDPRLWRTIRLTGETINVDRALKVLTRRLCQDTPNVCLMLETVTVSGCRRLTDRGLYTIAQCCPELRRLEVSGCYNISNEAVFDVVSLCPNLEHLDVSGCSKVTCISLTREASIKLSPLHGKQISIRYLDMTDCFVLEDEGLHTIAAHCTQLTHLYLRRCVRLTDEGLRYLVIYCASIKELSVSDCRFVSDFGLREIAKLESRLRYLSIAHCGRVTDVGIRYVAKYCSKLRYLNARGCEGITDHGVEYLAKNCTKLKSLDIGKCPLVSDTGLECLALNCFNLKRLSLKSCESITGQGLQIVAANCFDLQTLNVQDCEVSVEALRFVKRHCKRCVIEHTNPAFF
binding: binds
